Assay results: article doi:10.1101/503540 (bioRxiv, 2018)
No constants are given. Whether binding was seen depends on the method and setting. Some results given as binding are weak or reduced against the parent protein; the word gives no strength. Sequences can lack the tags named with a protein.

T1: eIF2Bα, S. pombe (subunit of eIF2B) (Schizosaccharomyces pombe) (UniProt Q9USP0)
T1 sequence: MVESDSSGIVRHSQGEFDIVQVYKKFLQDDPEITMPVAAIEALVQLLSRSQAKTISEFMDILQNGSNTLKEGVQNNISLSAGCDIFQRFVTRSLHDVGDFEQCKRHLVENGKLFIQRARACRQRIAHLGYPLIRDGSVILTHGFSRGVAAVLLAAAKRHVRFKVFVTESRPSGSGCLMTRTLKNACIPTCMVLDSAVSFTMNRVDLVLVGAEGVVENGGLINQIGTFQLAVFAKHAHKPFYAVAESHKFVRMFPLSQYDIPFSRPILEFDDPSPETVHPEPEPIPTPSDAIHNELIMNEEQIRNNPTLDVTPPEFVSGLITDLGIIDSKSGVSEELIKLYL

T2: eIF2Bδ, S. pombe (subunit of eIF2B) (Schizosaccharomyces pombe) (UniProt Q09924)
T2 sequence: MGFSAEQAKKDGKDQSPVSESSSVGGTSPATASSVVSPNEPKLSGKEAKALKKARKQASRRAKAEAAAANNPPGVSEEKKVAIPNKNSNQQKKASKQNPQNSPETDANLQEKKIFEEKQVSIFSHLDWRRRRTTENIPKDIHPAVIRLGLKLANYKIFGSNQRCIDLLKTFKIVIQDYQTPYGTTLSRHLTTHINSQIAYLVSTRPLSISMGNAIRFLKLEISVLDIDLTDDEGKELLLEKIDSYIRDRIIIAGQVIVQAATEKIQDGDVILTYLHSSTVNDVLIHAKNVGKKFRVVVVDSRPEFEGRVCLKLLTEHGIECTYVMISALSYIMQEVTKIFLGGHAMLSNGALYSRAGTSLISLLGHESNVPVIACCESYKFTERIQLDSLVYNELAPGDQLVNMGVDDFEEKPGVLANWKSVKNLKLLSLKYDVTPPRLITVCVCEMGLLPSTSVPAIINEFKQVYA

B1: S. cerevisiae phosphorylated eIF2α (P-eIF2α), wild type (protein, UniProt P20459 1-304)
chain: MSTSHCRFYENKYPEIDDIVMVNVQQIAEMGAYVKLLEYDNIEGMILLSELSRRRIRSIQKLIRVGKNDVAVVLRVDKEKGYIDLSKRRVSSEDIIKCEEKYQKSKTVHSILRYCAEKFQIPLEELYKTIAWPLSRKFGHAYEAFKLSIIDETVWEGIEPPSKDVLDELKNYISKRLTPQAVKIRADVEVSCFSYEGIDAIKDALKSAEDMSTEQMQVKVKLVAAPLYVLTTQALDKQKGIEQLESAIEKITEVITKYGGVCNITMPPKAVTATEDAELQALLESKELDNRSDSEDDEDESDDE
modifications: phosphoserine at 51
B2: S. cerevisiae eIF2α, unphosphorylated, wild type (protein, UniProt P20459 1-304)
chain: B1 chain

How the values were obtained:
[1] = molecular target: T1, eIF2Bα, S. pombe (subunit of eIF2B) (Schizosaccharomyces pombe); assay: crystal structure
[2] = molecular target: T2, eIF2Bδ, S. pombe (subunit of eIF2B) (Schizosaccharomyces pombe); assay: crystal structure

Binder | binding [1] | binding [2]
B1 | binds | binds
B2 | binds | binds
